We go through one molecule from article PMC11342681.

This assay concerns the target ΔNp63 (human (endogenous in MCF10A MII)). The assay is described as follows: affinity purification with mass spectrometry; nuclear fractions of MCF10A MII cells treated or not with TGFβ (5 ng/ml) for 6 h; immunoprecipitation with a p63 antibody on protein A Dynabeads; on-bead trypsin digestion, LC-MS/MS.

These are yes or no findings as the source states them, for the method shown. In cells and extracts the contact can be indirect. A yes stands for co-enrichment or nearness to the bait. Other partners may have been found.

B1: AP-1 family transcription factor JUNB (protein, UniProt P17275 1-347)
chain: MCTKMEQPFYHDDSYTATGYGRAPGGLSLHDYKLLKPSLAVNLADPYRSLKAPGARGPGPEGGGGGSYFSGQGSDTGASLKLASSELERLIVPNSNGVITTTPTPPGQYFYPRGGGSGGGAGGAGGGVTEEQEGFADGFVKALDDLHKMNHVTPPNVSLGATGGPPAGPGGVYAGPEPPPVYTNLSSYSPASASSGGAGAAVGTGSSYPTTTISYLPHAPPFAGGHPAQLGLGRGASTFKEEPQTVPEARSRDATPPVSPINMEDQERIKVERKRLRNRLAATKCRKRKLERIARLEDKVKTLKAENAGLSSTAGLLREQVAQLKQKVMTHVSNGCQLLLGVKGHAF
On to B1, for which the binding result is given as “binds”.
